Test results from publication PMC10941009, “Structural basis for specific DNA sequence recognition by the transcription factor NFIL3” (The Journal of Biological Chemistry, 2024).
For some of these results: A negative result means that nothing was seen under these conditions. For some of these results: At least one verdict rests on a figure or table, not on a statement of the authors. For some of these results: A weaker result is weaker than the reference pair of the same experiment.

By UniProt entry, the sequences of proteins in these tests, tags left out. Residues count along the entry.
UniProt Q16649, 65-161: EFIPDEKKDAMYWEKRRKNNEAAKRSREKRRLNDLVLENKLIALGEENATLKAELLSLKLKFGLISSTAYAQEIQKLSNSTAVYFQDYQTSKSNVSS
UniProt P35638, 88-162: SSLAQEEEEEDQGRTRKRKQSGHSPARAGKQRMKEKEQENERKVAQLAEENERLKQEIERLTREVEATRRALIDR

What was measured:
[1] = biological target: NFIL3 bZIP (long) (human) (UniProt Q16649); assay: ITC; conditions: WB: heat too low to fit; ITC: 20 mM Tris pH 7.5, 150 mM NaCl, 25 °C; recombinant protein; residues 65-161; protein details: His6-SUMO removed by TEV
[2] = biological target: C/EBPζ bZIP (human) (UniProt P35638); assay: EMSA; conditions: 6-48 uM protein; EMSA: same buffer, 4 °C, 6% native gel in 0.5x TBE; recombinant protein; residues 88-162; protein details: His6-SUMO removed by TEV; label: 5' FAM

| Sequence | binding result [1] | binding result [2] |
| --- | --- | --- |
| CACCGCGCGGTG (double strand) [ccgCGcgg] | binds more weakly |  |
| CACCGTACGGTG (double strand) [ccgtacgg] | binds more weakly |  |
| CATTGCGCAATG (double strand) [FAM-TTGCGCAA] |  | no binding |
| GATGATGTAATC (double strand) [FAM-TGATGTAA] |  | no binding |
